From PubChem BioAssay AID540276 (National Center for Advancing Translational Sciences (NCATS), 2011)
Hit rate of the full screen: of about 300,000 compounds, about 5,400 (1.8%) were called active. The shares of active, inactive and inconclusive entries below differ from those in the screen. Calls come from the whole dose curve; tested in HEK293 cells. A potency beside an inconclusive call is a rough fit, not a confirmed value.

Assay: qHTS for inhibitors of binding or entry into cells for Marburg Virus
Details: Marburg virus pseudotyped entry inhibition, cell reporter; activity change, negative = inhibition: at 37.8 µM (top of the series) unless noted
% is set by controls: 0 for no effect and ±100 for the full control effect; potency is the fitted concentration of half-maximal effect.

Row | SMILES | Potency | activity change, negative = inhibition
1 | Cc1nc2c(cnn2-c2ccccc2Cl)c(=O)n1-c1ccc(C(C)C)cc1 | active: 14.6 µM | 
2 | CN(Cc1cccs1)C(=O)Cc1c[nH]c2ccccc12 | inconclusive: 1.78 µM [activator, partial curve, poor fit] | 
3 | CCc1ccc(N=c2c([N+](=O)[O-])nn(-c3ccc4c(c3)OCCO4)n2O)cc1 | inactive | 
4 | CN(CCn1ccnc1)Cc1cn(-c2ccccc2)nc1-c1ccc2c(c1)OCO2 | inconclusive: 1.26 µM [inhibitor, partial curve, poor fit] | 
5 | CCCc1noc(-c2ccc(N3CCCCC3)c([N+](=O)[O-])c2)n1 | inactive | 
6 | CCn1c(SCC(=O)Nc2cc(C)on2)nc2c(c1=O)SC(C)C2 (configuration not stated) | inactive | 
7 | COC(=O)CNC(c1ccccc1)c1cc(Br)ccc1NC(C)=O (configuration not stated) | inconclusive: 2.82 µM [activator, single point] | 
8 | CC(C)CC(=O)NC(c1ccccc1Cl)c1c(O)ccc2ccccc12 (configuration not stated) | inconclusive: 10 µM [inhibitor, partial curve, poor fit] | 
9 | CC(C)(C)c1ccc(OCCCNCc2ccccc2)cc1 | inconclusive: 14.1 µM [inhibitor, single point] | 
10 | O=C(CC(c1ccccc1)c1ccccc1)N1CCN(c2ccccn2)CC1 | inconclusive: 15.8 µM [inhibitor, single point] | 
11 | COc1ccc2c(c1)CC(N1CCN(C)CC1)c1cc(OC)ccc1S2 (configuration not stated) | active: 3.98 µM | 
12 | Cc1cc(Cl)ccc1C(=O)C1CCCN(Cc2ccon2)C1 (configuration not stated) | inconclusive: 35.5 µM [inhibitor, single point] | 
13 | COC(=O)c1sccc1NC(=O)Nc1cccc(Cl)c1Cl | inactive | 
14 | COc1ccc(-n2cc(CNC3CCN(C)CC3)c(-c3cccc(F)c3)n2)cc1 | active: 3.16 µM | 
15 | CCc1nnc(NC(=O)CCC(=O)NC2CCCc3ccccc32)s1 (configuration not stated) | inactive | 
16 | Cc1[nH]nc2c1-c1nc3ccccc3nc1C(C)(C)C2 | inconclusive: 23.1 µM [inhibitor, single point] | 
17 | O=C(Nc1ccccc1)/C(=C/c1ccccc1)c1ccccc1 | inconclusive: 0.891 µM [inhibitor, full curve, poor fit] | 
18 | O=C(Nc1nc(-c2cccs2)cs1)c1cccc(S(=O)(=O)N2CCCCC2)c1 | inconclusive: 8.91 µM [inhibitor, partial curve, poor fit] | 
19 | COc1ccc(C)c2sc(N(CCCN(C)C)C(=O)c3ccc4c(c3)OCCO4)nc12 | inconclusive: 17.8 µM [inhibitor, single point] | 
20 | Cc1ccccc1OCC(=O)Nc1ccccc1N1CCC(C)CC1 | inconclusive: 7.94 µM [inhibitor, partial curve, poor fit] | 
21 | CCc1cc2ccc(C)c(C)c2nc1SCC(=O)Nc1cc(C)on1 | inconclusive: 3.16 µM [inhibitor, single point] | 
22 | Oc1ccc(Br)cc1CN1CCN(c2ccccc2)CC1 | inconclusive: 20.6 µM [inhibitor, single point] | 
23 | S=c1[nH]nc(SCc2ccccc2)c2[nH]cnc12 |  | inconclusive: 0.931% [activator] [at 46.1 µM]

Individual results from the results shown:
For Potency, COc1ccc(C)c2sc(N(CCCN(C)C)C(=O)c3ccc4c(c3)OCCO4)nc12 shows inconclusive: 17.8 µM [inhibitor, single point]
For Potency, CCn1c(SCC(=O)Nc2cc(C)on2)nc2c(c1=O)SC(C)C2 (configuration not stated) shows inactive

Remaining list, next part:

Row | SMILES | Potency | activity change, negative = inhibition
24 | CCCn1c(=O)c(C(=O)NNS(=O)(=O)c2ccc(C)cc2)c(O)c2ccccc21 | inconclusive: 1.26 µM [activator, single point] | 
25 | COc1ccc(/C=N/NC(=O)CCn2cnc(-c3ccccc3)c2-c2ccccc2)cc1 | active: 18.4 µM | 
26 | CN1C(=O)N(C)C(=O)C(NS(=O)(=O)c2ccc(N)cc2)(c2ccccc2)C1=O | inconclusive: 35.5 µM [activator, single point] | 
27 | Cc1[nH]c2ccccc2c1C(=O)CN1CCN(C/C=C/c2ccccc2)CC1 | inconclusive: 10 µM [inhibitor, partial curve, poor fit] | 
28 | CC(=O)c1ccc(N(C(=O)Cc2c[nH]c3ccccc23)C(C(=O)NC2CCCCC2)c2cccs2)cc1 (configuration not stated) | inactive | 
29 | N/C(=N\c1nc2ccccc2o1)NC(=O)c1ccc([N+](=O)[O-])cc1 | inactive | 
30 | Cn1c(COc2ccc(F)cc2)nc2ccccc21 | inconclusive: 3.55 µM [activator, single point] | 
31 | CC(=O)Nc1ccccc1C(=O)C(=O)Nc1cccc(C(=O)N2CC(C)CC(C)C2)c1 (configuration not stated) | inconclusive: 35.5 µM [inhibitor, single point] | 
32 | O=C(/C=C/c1ccccc1)NC(=S)NNC(=O)c1cnccn1 | inconclusive: 35.5 µM [inhibitor, single point] | 
33 | O=C(Cc1n[nH]c(=O)c2ccccc12)OCC(=O)c1ccccc1Cl | inactive | 
34 | COC(=O)/C=C/C(=O)Nc1ccc(O)c(Cl)c1 | inconclusive: 22.4 µM [inhibitor, single point] | 
35 | Cc1ccc(C(C)(C)C)c(OCCCCN2CCCC2)c1 | inconclusive: 10 µM [inhibitor, partial curve, poor fit] | 
36 | Cc1ccc(C(=O)c2oc3ccccc3c2NC(=O)c2cc(=O)c3ccccc3o2)cc1 | inactive | 
37 | CC(=O)Cn1cnc2c(sc3nc(C)cc(C)c32)c1=O | inconclusive: 12.6 µM [activator, partial curve, poor fit] | 
38 | Cc1ccc(SC(C)C(=O)Nc2ccccc2C(=O)N2CCOCC2)cc1 (configuration not stated) | inactive | 
39 | COC(=O)c1cn(S(=O)(=O)c2ccccc2)c2ccccc12 | inconclusive: 7.08 µM [inhibitor, full curve, poor fit] | 
40 | O=C(O)CCC(=O)NNc1ncnc2ccccc12 | inactive | 
41 | Cc1cc(C)cc(OCC(=O)Nc2ccc(N3CCCC3)cc2)c1 | inactive | 
42 | NC(=S)c1c(Cl)cc(C(F)(F)F)cc1Cl | inconclusive: 17.8 µM [activator, single point] | 
43 | COc1ccc(S(=O)(=O)N2CCCCC2)cc1NC(=O)COc1ccccc1 | inconclusive: 1.26 µM [inhibitor, single point] | 
44 | O=C(Cc1coc2cc3c(cc12)CCC3)NC1CCCCCCC1 | inactive | 
45 | Oc1cccc(C(Nc2ccccn2)c2ccc3cccnc3c2O)c1Cl (configuration not stated) | inconclusive: 35.5 µM [inhibitor, single point] | 
46 | CCNc1ccc(N=Nc2c(C)n(C)n(-c3ccccc3)c2=O)cc1 | inconclusive: 35.5 µM [activator, single point] | 

Row | SMILES | Potency | activity change, negative = inhibition
47 | COc1ccc2c(c1)C(C)=CC(C)(C)N2S(=O)(=O)c1ccc(C)cc1 | inconclusive: 6.31 µM [inhibitor, partial curve, poor fit] | 
48 | CCOC(=O)C1CCN(C(=O)c2c(-c3c(Cl)cccc3Cl)noc2C)CC1 | inconclusive: 6.31 µM [inhibitor, single point] | 
49 | COc1cccc(-c2ccc(NC(=O)C3CCCN(Cc4ccco4)C3)cc2)c1 (configuration not stated) | inconclusive: 35.5 µM [inhibitor, single point] | 
50 | O=C(Nc1cc(Sc2nc3ccccc3s2)cc([N+](=O)[O-])c1)c1cccc(F)c1F | inconclusive: 20 µM [inhibitor, single point] | 
51 | CCOCCCN(C)C1CCN(C(=O)c2oc3ccccc3c2NC(=O)Cc2cccc([N+](=O)[O-])c2)CC1 | inconclusive: 22.4 µM [inhibitor, single point] | 
52 | CCOCCCNC(=O)C(c1ccc(OC)cc1)N(Cc1cccs1)C(=O)c1ccc(NC(C)=O)cc1 (configuration not stated) | inconclusive: 35.5 µM [inhibitor, partial curve, poor fit] | 
53 | Brc1ccc(CN2C3=NCCCN3c3ccccc32)cc1 | active: 10.3 µM | 
54 | CCOC(=O)N1CCC(NS(=O)(=O)c2cc3c(cc2C)NC(=O)CO3)CC1 | inconclusive: 0.116 µM [inhibitor, full curve] | 
55 | Cn1cc(C(c2ccccc2OCC(=O)O)c2cn(C)c3ccccc23)c2ccccc21 | inconclusive: 15.8 µM [activator, single point] | 
56 | C=COCCNC(=O)Nc1ccc(Cl)c(Cl)c1 | inactive | 
57 | O=C(CCC(=O)Nc1ccc(F)cc1)N/N=C/c1ccc(Br)cc1 | inactive | 
58 | O=C(CSc1nnc(-c2ccccc2Br)o1)N1CCOCC1 | inconclusive: 35.5 µM [inhibitor, single point] | 
59 | COc1cccc(NC(=O)c2ccc(-c3ccccc3[N+](=O)[O-])o2)c1 | inconclusive: 3.16 µM [activator, partial curve, poor fit] | 
60 | CCc1cccc(CC)c1N(COC)C(=O)Cn1c(C(C)O)nc2ccccc21 (configuration not stated) | inconclusive: 1.46 µM [inhibitor, partial curve, poor fit] | 
61 | CC(NC1CCN(Cc2ccccc2)CC1)c1ccc(F)cc1 (configuration not stated) | inconclusive: 22.4 µM [inhibitor, single point] | 
62 | CCS(=O)(=O)N1CCc2cc(C(=O)N3CCN(c4cccc(C(F)(F)F)c4)CC3)ccc21 | inconclusive: 11.2 µM [inhibitor, partial curve, poor fit] | 
63 | COC(=O)c1nc(NC(=S)NC(=O)c2cccs2)sc1C | inconclusive: 0.631 µM [activator, partial curve, poor fit] | 
64 | CCOc1ccc(C(=O)/C=C/c2cc(OC)c(OC)c(OC)c2)cc1 | inconclusive: 35.5 µM [inhibitor, partial curve, poor fit] | 
65 | CCOc1ccc(-n2c(-c3ccc(Cl)cc3)c[n+]3c2SCC3)cc1 | inconclusive: 8.91 µM [inhibitor, partial curve, poor fit] | 
66 | NC(=O)c1ccc(Cl)c2ccccc12 | inconclusive: 35.5 µM [inhibitor, single point] | 
67 | CC1(C)Cc2nc3oc4c(=O)n(CC(=O)Nc5ccc(Cl)cc5)cnc4c3cc2CO1 | inconclusive: 35.5 µM [inhibitor, single point] | 

In the list so far, two contain a CF3 group.
Row | SMILES | Potency | activity change, negative = inhibition
42 | NC(=S)c1c(Cl)cc(C(F)(F)F)cc1Cl | inconclusive: 17.8 µM [activator, single point] | 
62 | CCS(=O)(=O)N1CCc2cc(C(=O)N3CCN(c4cccc(C(F)(F)F)c4)CC3)ccc21 | inconclusive: 11.2 µM [inhibitor, partial curve, poor fit] | 
